{"source": "PubChem BioAssay AID686938 (Drosophila RNAi Screening Center, 2013)", "test": "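Looking for CRAC channel components and the factors controlling them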 (primary screen)", "cell system": "Drosophila S2R+ cells", "reagent": "long dsRNA against Drosophila genes, about 0.25 µg dsRNA per well, roughly 10,000 cells", "time to read-out": "5 days of knock-down before the calcium assay", "treatment": "thapsigargin (SERCA pump blocker) to empty calcium stores; entry signal taken 4 min after adding it", "read-out": "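Per-well fluo-4 fluorescence in two replicates, unnormalised, measured in resting cells and 4 min after store depletion by the SERCA blocker thapsigargin; ratio of the two present in few wells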", "reading the numbers": "calcium entry signal: higher = stronger calcium signal after store depletion; resting calcium signal: higher = higher resting calcium signal", "units": "calcium entry signal in fluorescence units; resting calcium signal in fluorescence units", "call rule": "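Called when the plate z-score of the entry-to-rest ratio, mean of duplicates, falls below −3; wells with low overall dye signal (Fmax z below −2) or more than five off-targets excluded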", "meaning of the calls": "active = strongly reduced calcium entry; inactive = no strong reduction", "note": "In all, the deposit lists about 23,000 reagents; below is a random part of those that have a named target and a result. Of all reagents, 75 (0.33%) were called active. 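Raw plate signals without normalisation; calls rest on plate z-scores that were not deposited; ratio present for only 364 wells.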 The numbers tell different reagents against one gene apart. The record does not give: the dose of the treatment."}
{"Target gene":"cass","reagent":1,"calcium entry signal, replicate 1":4.15e7,"resting calcium signal, replicate 1":2.20e7,"activity call":"inactive"}
{"Target gene":"dUTPase","reagent":1,"calcium entry signal, replicate 1":5.26e7,"resting calcium signal, replicate 1":2.49e7,"activity call":"inactive"}
{"Target gene":"CG6592","reagent":1,"calcium entry signal, replicate 1":1.99e7,"calcium entry signal, replicate 2":3.43e7,"resting calcium signal, replicate 1":1.11e7,"resting calcium signal, replicate 2":1.52e7,"activity call":"inactive"}
{"Target gene":"Naam","reagent":1,"calcium entry signal, replicate 1":5.13e7,"calcium entry signal, replicate 2":4.89e7,"resting calcium signal, replicate 1":5.00e7,"resting calcium signal, replicate 2":2.19e7,"activity call":"inactive"}
{"Target gene":"CG5011","reagent":1,"calcium entry signal, replicate 1":5.26e7,"resting calcium signal, replicate 1":2.65e7,"activity call":"inactive"}
{"Target gene":"hh","reagent":1,"calcium entry signal, replicate 1":4.28e7,"calcium entry signal, replicate 2":6.87e7,"resting calcium signal, replicate 1":2.12e7,"resting calcium signal, replicate 2":2.81e7,"activity call":"inactive"}
{"Target gene":"Ptip","reagent":1,"calcium entry signal, replicate 1":4.79e7,"calcium entry signal, replicate 2":4.61e7,"resting calcium signal, replicate 1":2.01e7,"resting calcium signal, replicate 2":1.92e7,"activity call":"inactive"}
{"Target gene":"Ptip","reagent":2,"calcium entry signal, replicate 1":5.01e7,"calcium entry signal, replicate 2":4.27e7,"resting calcium signal, replicate 1":2.43e7,"resting calcium signal, replicate 2":2.11e7,"activity call":"inactive"}
{"Target gene":"Oamb","reagent":1,"calcium entry signal, replicate 1":7.44e7,"calcium entry signal, replicate 2":3.13e7,"resting calcium signal, replicate 1":3.11e7,"resting calcium signal, replicate 2":1.48e7,"activity call":"inactive"}
{"Target gene":"Oamb","reagent":2,"calcium entry signal, replicate 1":4.08e7,"calcium entry signal, replicate 2":4.31e7,"resting calcium signal, replicate 1":7.04e7,"resting calcium signal, replicate 2":2.18e7,"activity call":"inactive"}
{"Target gene":"Oamb","reagent":3,"calcium entry signal, replicate 1":4.47e7,"calcium entry signal, replicate 2":5.38e7,"resting calcium signal, replicate 1":6.05e7,"resting calcium signal, replicate 2":2.47e7,"activity call":"inactive"}
{"Target gene":"TpnC41C","reagent":1,"calcium entry signal, replicate 1":2.93e7,"calcium entry signal, replicate 2":4.48e7,"resting calcium signal, replicate 1":1.51e7,"resting calcium signal, replicate 2":2.07e7,"activity call":"inactive"}

A stretch of the results above:
{"Target gene":"Ptip","reagent":1,"calcium entry signal, replicate 1":4.79e7,"calcium entry signal, replicate 2":4.61e7,"resting calcium signal, replicate 1":2.01e7,"resting calcium signal, replicate 2":1.92e7,"activity call":"inactive"}
{"Target gene":"Ptip","reagent":2,"calcium entry signal, replicate 1":5.01e7,"calcium entry signal, replicate 2":4.27e7,"resting calcium signal, replicate 1":2.43e7,"resting calcium signal, replicate 2":2.11e7,"activity call":"inactive"}
